Test results published in PubChem BioAssay AID504834 (National Center for Advancing Translational Sciences (NCATS), 2011).
“And” between values parts separate entries of the source, which are not always exact repeats. Identical values can stand only once. In all, about 320,000 compounds went through this assay and about 22,000 (6.9%) were called active. The inconclusive results got no clear call from the source; some entries with a clear call stand among them for comparison. Calls follow the shape of the dose curve; as a rule, active = well fitted inhibition curve with a large enough effect; inconclusive = small, poorly fitted or top-dose-only effect, or another doubt; inactive = no such curve, though single readings can be large or run the other way. Where the call is inconclusive, the potency comes from a doubtful curve fit.

Test: Primary qHTS for delayed death inhibitors of the malarial parasite plastid, 96 hour incubation
Details: P. falciparum luciferase reporter growth; series mostly up to 28.7 µM; activity change, negative = inhibition: at the top concentration
How it was run: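 Plates of compound plus infected erythrocytes (2% hematocrit, 0.05% parasitemia final) incubate 96 hours, 37 C, 5% CO2. Detection reagent added; reduced luminescence from the parasites' luciferase reporter flags inhibition.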
% is scaled to controls: 0 for no effect and ±100 for the full control effect; potency is read from the fitted curve at half-maximal effect.

| SMILES | Potency | activity change, negative = inhibition |
| --- | --- | --- |
| COc1c(O)c(=O)n2c3ccccc3c3ccnc1c32 | inconclusive: 8.28 µM [inhibitor, partial curve] |  |
| Cc1nc(CNC(=O)CC2C(=O)NCCN2Cc2cccc(Oc3ccccc3)c2)cs1 (stereo unspecified) | inconclusive: 0.208 µM [inhibitor, partial curve, poor fit] |  |
| COc1ccc(S(=O)(=O)Nc2ccc(CC#N)cc2)cc1 |  | inactive: 245% |
| CCn1c(COc2ccc(C)cc2)nnc1SCC(=O)Nc1ccc(S(N)(=O)=O)cc1 | inconclusive: 14.7 µM [inhibitor, partial curve, poor fit] |  |
| COc1ccc(OC)c(NC(=O)Cn2c(CCC(=O)O)ccc2-c2cccs2)c1 | inconclusive: 11.7 µM [inhibitor, single point] |  |
| Cc1ccc(-c2nn(-c3ccccc3)cc2C(=O)NN2CCN(C)CC2)cc1 | inconclusive: 11.7 µM [inhibitor, single point] |  |
| Cc1ccc2[nH]c(-c3ccccc3)c(CN(C)C)c(=O)c2c1 | inconclusive: 1.85 µM [inhibitor, partial curve, poor fit] |  |
| OCn1c2ccccc2c2ccccc21 |  | inactive: 126% |
| COc1ccc(CNC(=O)C2CCN(S(=O)(=O)c3ccccc3)CC2)cc1 | inconclusive: 0.0329 µM [inhibitor, full curve, poor fit] |  |
| CCOc1cc(/C=N/NC(=O)C(=O)NC)cc(Br)c1O | inconclusive: 8.28 µM [inhibitor, partial curve, poor fit] |  |
| Cc1ccc(-n2nc3c(c2NC(=O)c2ccco2)CS(=O)(=O)C3)cc1 | inconclusive: 3.7 µM [inhibitor, full curve] |  |
| O=C1CCCc2cc3c(cc21)CC1(C3)Cc2cc3c(cc2C1)C(=O)CCC3 | inconclusive: 11.7 µM [inhibitor, partial curve] |  |
| COc1ccc(C)cc1NC(=O)c1nn(C)c(C(=O)Nc2cc(C)ccc2OC)c1[N+](=O)[O-] | inconclusive: 11.7 µM [inhibitor, single point] |  |
| CN1CCN(c2ccc(S(=O)(=O)N3CCOCC3)cc2NC(=O)CCc2ccccc2)CC1 |  | inactive: -0.796% |
| Cn1nnnc1SCCNCc1ccccc1OCc1ccccc1Cl |  | inactive: -2.49% [at 5.75 µM] |
| CCc1ccc(NC(=O)[C@@H](NC(=O)[C@@H]2Cc3ccccc3CN2)C(C)CC)cc1 (stereo partly specified) | inconclusive: 2.94 µM [inhibitor, full curve, poor fit] |  |
| COc1cc(CNS(=O)(=O)c2ccc3c(c2)CC(C)N3C(=O)C2CCC2)cc(OC)c1OC (stereo unspecified) | inconclusive: 13.1 µM [inhibitor, partial curve] |  |
| Oc1cccc(-c2nc3c4c(ncn3n2)-c2ccccc2CC42CCCC2)c1 | active: 9.28 µM |  |
| CC(=O)c1ccc(Nc2cc(C)nc3ccccc23)cc1 | inconclusive: 0.828 µM [inhibitor, full curve] |  |
| CCOc1cccc(CN2CCN(Cc3ccc(C)o3)C(CCO)C2)c1O (stereo unspecified) | inconclusive: 16.5 µM [inhibitor, single point] |  |
| CC(=O)N1c2ccc(S(=O)(=O)NCCC(=O)N(C)C3CCCCC3)cc2CC1C (stereo unspecified) | inconclusive: 0.0029 µM [inhibitor, full curve, poor fit] |  |
| COc1ccc(NC(=O)CSc2nnnn2C2CC2)cc1S(=O)(=O)N1CCOCC1 | inconclusive: 18.5 µM [inhibitor, single point] |  |

| SMILES | Potency | activity change, negative = inhibition |
| --- | --- | --- |
| CC1CC(C)CN(CCCNC(=O)Cc2c(C(=O)O)[nH]c3ccccc23)C1 (stereo unspecified) | inconclusive: 1.17 µM [inhibitor, partial curve, poor fit] |  |
| CN(c1ccc(C(=O)Nc2cccc([N+](=O)[O-])c2)cc1)S(C)(=O)=O |  | inactive: 9.52% |
| CCOc1cc(/C=N/O)cc(Br)c1OC | inconclusive: 11.7 µM [inhibitor, single point] |  |
| O=S(=O)(c1ccc(-c2n[nH]c(=S)o2)cc1)N1CCCC1 | inconclusive: 10.4 µM [inhibitor, single point] |  |
| CCN1CCN(CCNC(=O)CCCCCn2c(=O)[nH]c3cc(C(=O)OC)ccc3c2=O)CC1 | inconclusive: 9.28 µM [inhibitor, partial curve] |  |
| Cc1ccnc(NC(=O)CCC(=O)N(CC(=O)NC2CCCCC2)Cc2cccs2)c1 | inconclusive: 5.86 µM [inhibitor, partial curve] |  |
| Cc1nc2cc(-c3cccc(F)c3)nn2c(C)c1CCC(=O)N1CCN(c2ccccn2)CC1 | inconclusive: 6.57 µM [inhibitor, partial curve, poor fit] |  |
| Nc1nc(NCc2ccco2)nc(N2CCN(Cc3ccccc3)CC2)c1[N+](=O)[O-] | inconclusive: 7.38 µM [inhibitor, partial curve, poor fit] |  |
| COc1ccccc1C(=O)N/C(=C/c1ccc2c(c1)OCO2)C(=O)Nc1cccc(C(=O)O)c1 | inconclusive: 2.62 µM [inhibitor, full curve] |  |
| Cc1cccc(CN2CCN(Cc3ccc4nonc4c3)CC2CCO)n1 (stereo unspecified) | inconclusive: 10.4 µM [inhibitor, single point] |  |
| Cc1cc(=O)oc2c3c(cc(OCC(=O)N[C@@H](C)C(=O)O)c12)OC(C)(C)CC3 |  | inactive: 11.7% |
| O=c1[nH]c(CN2CCN(S(=O)(=O)/C=C/c3ccccc3)CC2)nc2cc(Cl)ccc12 | inconclusive: 4.65 µM [inhibitor, partial curve] |  |
| CCNC(=S)N/N=C(\C)c1cc2ccccc2o1 | inconclusive: 18.5 µM [inhibitor, single point] |  |
| CCCc1cc(N2CCOCC2)n2nc(C)c(-c3ccccc3)c2n1 |  | inactive: -4.14% |
| COc1ccccc1C(=O)COC(=O)c1cc([N+](=O)[O-])ccc1N1CCOCC1 | inconclusive: 10.4 µM [inhibitor, single point] |  |
| CC(=O)Oc1ccc(-c2nc3c(C)cccc3c(=O)o2)cc1 | inconclusive: 18.5 µM [inhibitor, single point] |  |
| COc1ccc(NC(=O)c2cc3c(s2)CCC(C)C3)cc1S(=O)(=O)N1CCOCC1 (stereo unspecified) | active: 7.38 µM |  |
| Cc1nc(SCC(=O)NCC2CCCO2)c2c3c(sc2n1)CCC3 (stereo unspecified) | inconclusive: 10.4 µM [inhibitor, single point] |  |
| Cc1ccc(C)c2[nH]c(=O)c(CCNC(=O)c3cc4ccccc4o3)cc12 | inconclusive: 8.28 µM [inhibitor, partial curve, poor fit] |  |
| COc1cc(NC(=O)c2n[nH]c(=O)c3ccccc23)cc(OC)c1 |  | inactive: 33% |
| CCN(CC)S(=O)(=O)c1cccc(NC(=O)CNc2cccc(S(=O)(=O)N3CCCC3)c2)c1 | inconclusive: 5.86 µM [inhibitor, partial curve] |  |
| NC(=O)CN1CCN(Cc2ccc3c(c2)OCO3)CC1 | active: 11.7 µM |  |

| SMILES | Potency | activity change, negative = inhibition |
| --- | --- | --- |
| Cc1cccc(-c2ccc3ncnc(NCc4cccnc4)c3c2)c1 | inconclusive: 10.4 µM [inhibitor, single point] and inconclusive: 18.5 µM [inhibitor, single point] |  |
| COC(=O)CSC1=NS(=O)(=O)c2ccccc21 |  | inactive: 9.57% |
| O=c1c(Cc2ccccc2)c(O)ccn1CCc1cnc[nH]1 | inconclusive: 18.5 µM [inhibitor, single point] |  |
| Cc1nn(CC(=O)N(C)C2CCC(C)CC2)c(C)c1S(=O)(=O)N(C)C (stereo unspecified) | inconclusive: 10.4 µM [inhibitor, single point] |  |
| N#Cc1nn(-c2ccccc2)nc1N1CCCCC1 | inconclusive: 14.7 µM [inhibitor, single point] |  |
| Nc1nc(Sc2c([N+](=O)[O-])cc(C(F)(F)F)cc2[N+](=O)[O-])n[nH]1 | inconclusive: 9.28 µM [inhibitor, single point] |  |
| Cc1cc(C)cc(OCC(=O)OCC(=O)c2cc(C)n(C3CC3)c2C)c1 |  | inactive: 4.91% |
| CCOC(=O)C1(CCOc2ccccc2)CCN(C(C)CSC)CC1 (stereo unspecified) | inconclusive: 13.1 µM [inhibitor, single point] |  |
| N#Cc1ccccc1OCC(=O)Nc1ccc2c(c1)OCCCO2 |  | inactive: 0% |
| COc1ccc(-c2cc(-c3nnc(-c4ccncc4)o3)c3ccccc3n2)cc1 | active: 9.28 µM |  |
| CC(O)[C@H]1CN=C(N)N1CCCCC1CCCCC1 (stereo partly specified) | active: 3.29 µM |  |
| COc1ccccc1C(CNC(=O)CCNC(=O)c1ccccc1Cl)N1CCCC1 (stereo unspecified) |  | inactive: 0.0563% |
| Cc1cc2nc3c(=O)n(C4CCCCC4)c(=O)[nH]c3nc2cc1N | inconclusive: 5.22 µM [inhibitor, single point] |  |
| O=C(CN1CCCCCC1)Nc1ccc(Br)cc1 | inconclusive: 18.5 µM [inhibitor, single point] |  |
| Cc1ccc(C)n1-c1ccc(C(=O)NN)cc1 |  | inactive: 0% |
| CCC(C)(C)C1CCC2(CC1)NC(=O)N(CC(=O)Nc1cc(C(F)(F)F)ccc1N1CCOCC1)C2=O (stereo unspecified) | inconclusive: 18.5 µM [inhibitor, single point] |  |
| CN1CC(C(=O)c2ccc(Cl)cc2)C(c2ccc(Cl)cc2Cl)C1 (stereo unspecified) | inconclusive: 13.1 µM [inhibitor, single point] |  |
| CCN(CC)CC#CCC(O)(c1ccccc1)c1ccc(Br)cc1 (stereo unspecified) |  | inactive: -4.13% |
| CCOC(=O)c1cnn(-c2nc(-c3ccc(C)cc3)cs2)c1C(F)(F)F |  | inactive: 79.3% |
| COc1ccc(OC)c(C2C3=C(CC(C)(C)CC3=O)Nc3nnnn32)c1 (stereo unspecified) | inconclusive: 2.94 µM [inhibitor, single point] |  |
| CC(C)N1CCC(N2CCN(Cc3ccc(-c4ccc(Cl)cc4)o3)CC2CCO)CC1 (stereo unspecified) | inconclusive: 9.28 µM [inhibitor, single point] |  |
| Cc1cccnc1NC(=O)C1CCN(S(=O)(=O)c2ccc3c(c2)CCC(=O)N3)CC1 | inconclusive: 16.5 µM [inhibitor, single point] |  |
